Laboratory results: publication PMC11399395
These are yes or no findings as the source states them, for the method shown. Binding seen in cells or lysates may run through a third protein. Some binding calls cover weakened binding; strength is not graded here.

Sequences of proteins named here, by UniProt entry; tags and fusion partners are left off. A change or cut given only in a name is not applied to a line headed by its entry.
UniProt Q09472: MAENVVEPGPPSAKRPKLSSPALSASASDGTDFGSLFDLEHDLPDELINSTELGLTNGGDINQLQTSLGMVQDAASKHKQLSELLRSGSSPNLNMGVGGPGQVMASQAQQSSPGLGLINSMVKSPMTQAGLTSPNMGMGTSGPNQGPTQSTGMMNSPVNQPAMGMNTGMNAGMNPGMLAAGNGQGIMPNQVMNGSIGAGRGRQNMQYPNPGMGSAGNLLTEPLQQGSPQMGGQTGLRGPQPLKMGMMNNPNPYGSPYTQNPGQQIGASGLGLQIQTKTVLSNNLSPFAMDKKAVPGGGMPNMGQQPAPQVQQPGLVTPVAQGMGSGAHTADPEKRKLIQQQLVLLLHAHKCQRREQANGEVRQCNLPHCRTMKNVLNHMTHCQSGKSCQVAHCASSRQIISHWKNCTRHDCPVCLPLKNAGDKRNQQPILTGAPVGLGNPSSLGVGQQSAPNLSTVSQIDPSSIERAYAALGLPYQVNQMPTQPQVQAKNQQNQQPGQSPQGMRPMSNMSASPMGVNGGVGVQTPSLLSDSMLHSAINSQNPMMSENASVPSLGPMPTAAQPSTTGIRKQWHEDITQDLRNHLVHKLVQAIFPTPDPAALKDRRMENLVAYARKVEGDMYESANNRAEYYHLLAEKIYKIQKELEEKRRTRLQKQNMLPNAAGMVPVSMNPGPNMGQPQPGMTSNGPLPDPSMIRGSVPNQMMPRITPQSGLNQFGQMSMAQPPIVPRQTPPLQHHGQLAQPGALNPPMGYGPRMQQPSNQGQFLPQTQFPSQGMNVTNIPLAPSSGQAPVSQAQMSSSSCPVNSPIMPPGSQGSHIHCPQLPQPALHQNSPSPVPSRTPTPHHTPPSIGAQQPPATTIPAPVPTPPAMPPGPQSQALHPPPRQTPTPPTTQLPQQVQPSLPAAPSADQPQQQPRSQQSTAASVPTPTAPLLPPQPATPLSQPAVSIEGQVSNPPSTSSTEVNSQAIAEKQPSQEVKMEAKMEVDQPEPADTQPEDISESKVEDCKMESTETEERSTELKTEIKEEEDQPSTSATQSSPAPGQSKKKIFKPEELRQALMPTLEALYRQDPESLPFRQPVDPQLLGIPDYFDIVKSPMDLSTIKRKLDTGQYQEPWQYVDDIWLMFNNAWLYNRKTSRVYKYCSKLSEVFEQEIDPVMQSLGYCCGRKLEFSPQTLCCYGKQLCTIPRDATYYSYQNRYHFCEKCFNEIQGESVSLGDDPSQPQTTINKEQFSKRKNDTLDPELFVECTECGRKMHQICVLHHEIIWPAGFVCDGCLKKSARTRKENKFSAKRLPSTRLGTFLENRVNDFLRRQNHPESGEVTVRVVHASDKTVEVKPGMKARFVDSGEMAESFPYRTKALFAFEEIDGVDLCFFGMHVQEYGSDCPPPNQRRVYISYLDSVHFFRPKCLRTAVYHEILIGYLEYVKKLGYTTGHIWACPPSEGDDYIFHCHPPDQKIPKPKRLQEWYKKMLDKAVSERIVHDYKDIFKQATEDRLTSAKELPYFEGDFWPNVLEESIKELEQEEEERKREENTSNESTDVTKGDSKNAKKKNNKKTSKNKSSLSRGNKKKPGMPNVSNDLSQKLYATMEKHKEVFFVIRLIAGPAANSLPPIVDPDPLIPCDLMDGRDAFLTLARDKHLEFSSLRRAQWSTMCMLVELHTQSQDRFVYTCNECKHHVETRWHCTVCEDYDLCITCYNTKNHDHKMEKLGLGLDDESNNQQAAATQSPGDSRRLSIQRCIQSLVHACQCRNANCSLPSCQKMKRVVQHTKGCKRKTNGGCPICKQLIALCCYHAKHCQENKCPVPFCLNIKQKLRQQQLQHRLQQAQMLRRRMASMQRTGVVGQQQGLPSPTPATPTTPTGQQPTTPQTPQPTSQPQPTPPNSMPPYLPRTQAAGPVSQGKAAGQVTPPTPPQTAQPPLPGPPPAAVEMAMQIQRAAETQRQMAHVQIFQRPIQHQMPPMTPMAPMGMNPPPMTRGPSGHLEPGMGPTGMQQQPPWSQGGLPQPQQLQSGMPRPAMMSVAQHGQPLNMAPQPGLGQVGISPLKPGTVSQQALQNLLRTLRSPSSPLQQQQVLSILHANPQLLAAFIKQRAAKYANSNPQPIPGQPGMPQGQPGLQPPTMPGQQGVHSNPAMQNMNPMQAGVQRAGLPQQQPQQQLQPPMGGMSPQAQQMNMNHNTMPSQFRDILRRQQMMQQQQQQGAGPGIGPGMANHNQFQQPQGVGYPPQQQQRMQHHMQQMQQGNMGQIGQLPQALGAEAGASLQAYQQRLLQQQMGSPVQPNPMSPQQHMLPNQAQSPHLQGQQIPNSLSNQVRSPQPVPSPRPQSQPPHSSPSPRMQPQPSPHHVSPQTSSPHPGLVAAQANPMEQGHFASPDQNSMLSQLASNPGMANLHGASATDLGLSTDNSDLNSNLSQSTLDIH

Target: runt-related transcription factor 1 (RUNX1) (human (endogenous in THP-1)) (UniProt Q01196)
Test: proximity ligation; Duolink In Situ PLA in THP-1 cells (NTC control and SMANTIS knockout), fixed with 4% PFA, permeabilised with 0.05% Triton X-100; goat anti-RUNX1 (MINUS) with rabbit anti-EP300, anti-SIN3A or anti-CBFB (PLUS); signals counted in nucleus and cytoplasm

E1A Binding Protein P300 (EP300) (from UniProt Q09472 1-2414)
binding: binds
